Patent US9040480 (dated 2015)

Test: general procedure: Fmoc solid-phase peptide synthesis; Fmoc-Gly-2-chlorotrityl polystyrene resin (2-CTC, CBL-Patras); HBTU/HOBt/diisopropylamine
Settings: whole synthesis, scale of the general procedure 3 mmol

Question: With “H-his-Ala-Glu-Gly-Thr-Phe-Thr-Ser-Asp-Val-Ser-Ser-Tyr-Leu-Glu-Gly-OH” as the substance, how does the “crude purity (method not given)” value (HPLC) read?
Answer: more than 30% purity

Question: And the difficulty met?
Answer: amino acids 8 to 1 posed severe problems
